The values below are quoted from earlier work in patent publication US6436649B1, “Method for detecting and/or quantifying a hapten in a homogeneous phase and device for implementation thereof” (priority 1996, dated 2002).

The chains behind the UniProt entries cited, without tags or fusion partners. Residues count along the entry.
UniProt P05193, 21-381: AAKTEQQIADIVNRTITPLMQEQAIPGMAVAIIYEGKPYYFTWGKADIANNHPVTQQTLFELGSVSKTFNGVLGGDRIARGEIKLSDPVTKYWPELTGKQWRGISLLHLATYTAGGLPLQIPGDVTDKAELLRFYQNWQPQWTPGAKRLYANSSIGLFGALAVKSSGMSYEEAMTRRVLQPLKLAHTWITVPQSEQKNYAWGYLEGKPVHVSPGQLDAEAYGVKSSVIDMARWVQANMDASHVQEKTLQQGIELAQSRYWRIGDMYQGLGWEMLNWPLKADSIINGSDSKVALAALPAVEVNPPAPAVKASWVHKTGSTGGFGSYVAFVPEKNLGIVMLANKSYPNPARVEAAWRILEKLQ

This data set addresses Citro.F. β-lactamase (Citrobacter freundii, UniProt P05193). The following applies: enzyme Citro.F.; cited from earlier work.

`CC1=C(C(=O)O)N2C(=O)[C@@H](NC(=O)[C@H](N)c3ccccc3)[C@H]2SC1` [Cephalexin]: the Km is 12 µM and the kcat was 170 S^−1.

The term Km denotes the substrate concentration at which the rate is half of its maximum.
